These results are taken from PMC7081349.

Protein sequences, listed by entry. Tags and fused reporters are not part of them. Lines headed by an entry give the natural chain unless they say otherwise; changes in a name come on top. Residues count along the entry.
UniProt Q00987: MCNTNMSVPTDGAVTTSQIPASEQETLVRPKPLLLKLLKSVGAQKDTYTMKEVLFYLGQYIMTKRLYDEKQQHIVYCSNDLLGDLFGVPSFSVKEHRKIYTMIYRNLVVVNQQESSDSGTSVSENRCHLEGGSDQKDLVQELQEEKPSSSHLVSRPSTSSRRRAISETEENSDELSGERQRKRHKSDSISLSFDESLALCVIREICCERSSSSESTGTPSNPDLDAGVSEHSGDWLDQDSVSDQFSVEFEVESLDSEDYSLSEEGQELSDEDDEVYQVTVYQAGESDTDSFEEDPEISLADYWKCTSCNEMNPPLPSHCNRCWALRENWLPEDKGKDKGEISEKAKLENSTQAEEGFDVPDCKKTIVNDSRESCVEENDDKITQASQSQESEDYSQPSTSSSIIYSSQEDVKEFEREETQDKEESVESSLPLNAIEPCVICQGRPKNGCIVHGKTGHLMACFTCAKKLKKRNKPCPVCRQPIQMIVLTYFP
GST-Mdm2-100T (Y100-P491): residues 100-491 of Q00987
UniProt O60260: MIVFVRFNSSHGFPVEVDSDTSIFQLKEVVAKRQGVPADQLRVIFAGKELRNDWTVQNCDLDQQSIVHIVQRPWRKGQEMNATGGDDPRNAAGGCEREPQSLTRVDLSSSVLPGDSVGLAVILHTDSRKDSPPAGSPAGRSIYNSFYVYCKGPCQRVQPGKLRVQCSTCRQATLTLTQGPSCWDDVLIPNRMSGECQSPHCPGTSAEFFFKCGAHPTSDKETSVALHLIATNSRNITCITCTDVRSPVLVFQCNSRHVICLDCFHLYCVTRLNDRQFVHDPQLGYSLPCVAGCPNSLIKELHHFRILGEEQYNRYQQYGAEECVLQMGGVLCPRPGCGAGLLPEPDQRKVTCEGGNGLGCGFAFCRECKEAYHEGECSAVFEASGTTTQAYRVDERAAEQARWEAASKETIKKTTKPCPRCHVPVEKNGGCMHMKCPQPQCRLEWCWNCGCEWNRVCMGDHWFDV

No constants are given. Whether binding was seen depends on the method and setting. For part of these data: Binding seen in cells or lysates may run through a third protein. Some results given as binding are weak or reduced against the parent protein; the word gives no strength.

The target in one assay is HA-Mdm2 (UniProt Q00987). The assay is described as follows: co-IP; HEK293 cells co-expressing HA-Mdm2 and Flag- or myc-parkin constructs; HA-Mdm2 precipitated with anti-HA, parkin detected by anti-Flag or anti-myc blot; buffer with 250 mM NaCl, 0.5% NP-40, 4 °C.
Assay [1] concerns the target GST-Mdm2-100T (Y100-P491) (UniProt Q00987). Kind of assay: pull-down; GST-Mdm2 (Y100-P491) or GST (5 µg) held on glutathione-agarose; purified MBP-parkin or MBP (5 µg) added, 4 °C, 3 h; 20 mM Hepes pH 7.3, 150 mM NaCl; eluted with glutathione, blot with anti-MBP; both purified.

Regarding “myc-parkin (from UniProt O60260 1-465) (enzyme)”, in the assay with HA-Mdm2, the binding result is listed as “binds”. Take “Flag-parkin, full-length WT (from UniProt O60260 1-465) (enzyme)”: the binding entry with HA-Mdm2 is given as “binds”. Regarding “MBP-parkin (from UniProt O60260 1-465) (enzyme)”, the binding result in assay [1] is “binds”.
